Reference: PMC11796410
Results are given in words; binding and its absence hold for the method and conditions named. Binding seen in cells or lysates may run through a third protein. Here binding means that the protein was enriched with, or labelled near, the bait; the list need not be complete.

By UniProt entry, the sequences of proteins in these tests, tags left out.
UniProt Q5AGW7: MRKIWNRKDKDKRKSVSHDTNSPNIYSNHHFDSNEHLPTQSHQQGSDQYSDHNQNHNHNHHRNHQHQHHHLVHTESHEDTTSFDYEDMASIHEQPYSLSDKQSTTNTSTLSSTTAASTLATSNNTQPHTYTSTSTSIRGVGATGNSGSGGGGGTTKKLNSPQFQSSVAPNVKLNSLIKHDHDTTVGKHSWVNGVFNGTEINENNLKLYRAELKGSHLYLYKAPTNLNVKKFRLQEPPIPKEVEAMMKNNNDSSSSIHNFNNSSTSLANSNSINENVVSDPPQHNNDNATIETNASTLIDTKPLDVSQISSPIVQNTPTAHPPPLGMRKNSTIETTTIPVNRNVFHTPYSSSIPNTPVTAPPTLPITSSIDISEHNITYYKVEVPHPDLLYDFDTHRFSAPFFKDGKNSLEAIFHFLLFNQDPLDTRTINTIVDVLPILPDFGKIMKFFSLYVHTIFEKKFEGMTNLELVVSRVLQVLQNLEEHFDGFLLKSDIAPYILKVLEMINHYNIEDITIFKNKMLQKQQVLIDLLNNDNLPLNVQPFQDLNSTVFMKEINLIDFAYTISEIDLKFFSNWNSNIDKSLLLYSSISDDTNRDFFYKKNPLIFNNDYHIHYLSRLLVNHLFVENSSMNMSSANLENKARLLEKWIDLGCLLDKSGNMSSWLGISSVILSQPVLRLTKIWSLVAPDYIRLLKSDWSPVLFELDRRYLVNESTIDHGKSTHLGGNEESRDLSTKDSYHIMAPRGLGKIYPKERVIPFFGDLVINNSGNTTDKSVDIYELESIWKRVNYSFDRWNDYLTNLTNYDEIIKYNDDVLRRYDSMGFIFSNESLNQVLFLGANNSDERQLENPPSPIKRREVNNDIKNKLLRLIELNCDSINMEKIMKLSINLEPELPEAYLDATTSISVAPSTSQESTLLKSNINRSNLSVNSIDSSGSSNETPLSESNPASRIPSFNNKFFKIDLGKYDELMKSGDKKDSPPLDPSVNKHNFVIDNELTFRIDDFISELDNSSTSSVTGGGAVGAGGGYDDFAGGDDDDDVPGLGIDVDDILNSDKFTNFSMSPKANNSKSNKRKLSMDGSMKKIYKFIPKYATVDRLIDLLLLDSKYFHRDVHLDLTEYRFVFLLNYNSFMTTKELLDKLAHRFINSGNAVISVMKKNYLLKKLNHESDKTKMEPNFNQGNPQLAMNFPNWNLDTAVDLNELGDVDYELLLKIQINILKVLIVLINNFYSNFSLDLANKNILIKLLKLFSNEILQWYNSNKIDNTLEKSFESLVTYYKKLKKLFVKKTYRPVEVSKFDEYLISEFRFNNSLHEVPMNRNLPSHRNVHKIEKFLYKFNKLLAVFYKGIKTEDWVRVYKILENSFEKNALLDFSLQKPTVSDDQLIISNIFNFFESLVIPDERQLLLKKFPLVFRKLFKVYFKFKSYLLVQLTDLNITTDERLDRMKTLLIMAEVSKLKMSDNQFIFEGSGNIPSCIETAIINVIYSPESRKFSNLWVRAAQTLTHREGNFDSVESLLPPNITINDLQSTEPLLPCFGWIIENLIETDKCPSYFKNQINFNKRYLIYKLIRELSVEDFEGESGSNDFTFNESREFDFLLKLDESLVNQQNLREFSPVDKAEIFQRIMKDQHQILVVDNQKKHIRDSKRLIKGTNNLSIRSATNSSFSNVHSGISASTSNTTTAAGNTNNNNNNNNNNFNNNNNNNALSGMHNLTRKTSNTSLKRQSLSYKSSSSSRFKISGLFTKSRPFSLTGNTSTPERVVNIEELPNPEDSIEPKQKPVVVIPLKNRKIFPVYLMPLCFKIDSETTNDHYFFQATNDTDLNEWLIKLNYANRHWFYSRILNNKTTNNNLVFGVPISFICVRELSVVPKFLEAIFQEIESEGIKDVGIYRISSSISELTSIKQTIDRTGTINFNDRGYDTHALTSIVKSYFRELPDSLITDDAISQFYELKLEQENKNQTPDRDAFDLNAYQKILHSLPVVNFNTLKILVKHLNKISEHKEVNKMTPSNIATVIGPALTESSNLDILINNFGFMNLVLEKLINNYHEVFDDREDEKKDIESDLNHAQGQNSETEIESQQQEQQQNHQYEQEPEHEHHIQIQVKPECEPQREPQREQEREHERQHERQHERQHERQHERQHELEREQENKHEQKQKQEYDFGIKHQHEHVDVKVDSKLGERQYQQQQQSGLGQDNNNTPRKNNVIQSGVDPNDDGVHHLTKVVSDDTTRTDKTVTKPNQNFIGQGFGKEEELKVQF

Target: Myc-Sdd3 (C. albicans) (UniProt Q59R27)
Assay: affinity purification with mass spectrometry

Q: For Bem2 (from UniProt Q5AGW7 1-2252), which binding is on record?
A: binds
